These are yes or no findings as the source states them, for the method shown. Binding can be weak; no strength is given. Tags and fused reporters may be left off the sequences shown.
Biological target: recombinant PfGet3-6×his (P. falciparum 3D7) (UniProt Q8I1T8)
Test: pull-down

Row | Binder | binding
1 | recombinant MBP-PfGet4 (protein, UniProt Q8IL82 1-277) MKKFKFSKEKLAKEKIENGLHYEAHQLIKSIINRKLQKNQISNCISVIFYFSLKFATAEQYVLLCDLMYQCCLILTQHDIEFNLEYANKIIEIFQKCPPNSTEEKYKFMNKSILWSKSEENVYGYLEFHKVIGYAYFEDKQYSLAHNHFIYLDDNDILYEIICLWRKEAYPSESHFFVLRTILCLLVLDKFDQALNLINMFETNLNRQDVPLPIQLAYLITSSCIYKSLALYEDVKYKYRLILNYDPDFQKYINIIDAAVFNKKKHNLFSMFQNIFA | binds
2 | recombinant MBP-PfGet2^CD (cytosolic domain of PF3D7_0215600) (domain or fragment, UniProt O96235 1-246) MDKNTLKRRSRLLQKNEARMSMLLGRNLDDEISKEKKESNKNDKHKKNDQHKKNDKSNQNGEDNQNGEDNQNDESNQNDEHKKNDEHKKNDEHNQNDEHNQNDEHNQNDEHNQNDEHNQNDEHNQNDEHNQNDEHNQNDESNQNDKNRKEIPPKEEKDKENNPSVVMENNNNIRKDQDNKTSEHKSSTNIYNKDKNNDYNKLLDKDDNNNNNKNINKNDENDFTSINNDIPNKNKITSQFIITKHE | binds

Reference: doi:10.1101/2021.05.03.442402
